Results deposited as PubChem BioAssay AID652243 (Drosophila RNAi Screening Center, 2013).
Assay: 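Fly regulators of androgen-dependent reporter output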 (primary screen). Cell system: Drosophila S2R+ cells. Reagent: long dsRNA against Drosophila genes. Time to read-out: 72 h (48 h, then 24 h hormone). Challenge: synthetic androgen R1881 at 10 nM for 24 h. Measured: 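Per-well raw luminescence of the androgen-driven firefly reporter and of the Renilla control, two replicates each, without normalisation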. Direction: firefly reporter light: higher = more light from androgen-responsive reporter; Renilla control light: higher = more constitutive control signal (cell number, transfection). Active means: 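Across duplicate plates, a knock-down whose log firefly/Renilla ratio shifted a set fold down or up from the GFP/LacZ control mean was a hit; the downward cut appears as both 1.5 and 3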. Meaning of the calls: active = hit: reporter lowered or raised; inactive = no hit.
The screen tested about 24,000 reagents; this is an unselected part of those that have a named target and a result. Of all reagents, 246 (1%) are marked active. 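Plates not normalised; calls are printed but the firefly/Renilla ratio behind them is not deposited; fold cut for lowering reported inconsistently.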 Raw values are not corrected between plates. Names joined by + are all predicted targets of the reagent. No sequences are given here. The record does not give: the amount of reagent.

| gene knocked down | dsRNA | firefly reporter light, replicate 1 | firefly reporter light, replicate 2 | Renilla control light, replicate 1 | Renilla control light, replicate 2 | outcome |
| --- | --- | --- | --- | --- | --- | --- |
| CG13108 | DRSC02206 | 81329 | 1.21e5 | 1.27e6 | 1.05e6 | inactive |
| Su(Tpl) | DRSC10954 | 13436 | 31129 | 1.74e5 | 2.10e5 | inactive |
| Su(Tpl) | DRSC26497 | 38945 | 35037 | 94471 | 91792 | inactive |
| CG12126 | DRSC06103 | 3.08e5 | 3.58e5 | 2.56e6 | 2.32e6 | inactive |
| eIF5B | DRSC08429 | 77284 | 85388 | 7.92e5 | 9.57e5 | inactive |
| eIF5B | DRSC08710 | 1.46e5 | 99120 | 1.16e6 | 1.10e6 | inactive |
| eIF5B | DRSC25022 | 7.68e5 | 4.29e5 | 7.36e5 | 4.65e5 | inactive |
| CG31373 | DRSC16052 | 1.77e5 | 2.59e5 | 2.94e6 | 2.74e6 | inactive |
| 4E-T | DRSC17201 | 75390 | 51803 | 5.18e5 | 3.45e5 | inactive |
| 4E-T | DRSC17208 | 2.74e5 | 3.78e5 | 2.93e6 | 2.35e6 | inactive |
| CG33099 | DRSC15774 | 71725 | 84503 | 6.11e5 | 7.31e5 | inactive |
| CG33099 | DRSC29273 | 5.88e5 | 4.84e5 | 1.25e6 | 1.23e6 | inactive |
| CG4270 | DRSC00648 | 1.07e5 | 68082 | 7.88e5 | 7.89e5 | inactive |
| yip7 | DRSC11410 | 1.58e5 | 93316 | 1.53e6 | 9.48e5 | inactive |
| yip7 | DRSC25234 | 4.03e5 | 3.51e5 | 9.08e5 | 5.80e5 | inactive |
| kra | DRSC12320 | 43197 | 68221 | 3.64e5 | 3.05e5 | inactive |
| Mp | DRSC10193 | 6.33e5 | 6.88e5 | 1.75e6 | 1.90e6 | inactive |
| Mp | DRSC11029 | 1.76e5 | 2.00e5 | 2.04e6 | 2.34e6 | inactive |
| Mp | DRSC11030 | 1.94e5 | 1.20e5 | 2.19e6 | 1.46e6 | inactive |
| CG15011 | DRSC08464 | 9.25e5 | 8.96e5 | 1.34e6 | 1.43e6 | inactive |
| Karybeta3 | DRSC12355 | 42754 | 42408 | 3.67e5 | 3.40e5 | inactive |
| CG1545 | DRSC21532 | 7.40e5 | 5.23e5 | 2.26e6 | 2.79e6 | inactive |
| CG12929 | DRSC06242 | 5.36e5 | 3.25e5 | 3.02e6 | 2.29e6 | inactive |
| Acp95EF + Spase22-23 | DRSC14102 | 1.78e5 | 2.39e5 | 2.36e6 | 3.00e6 | inactive |
| CG8478 | DRSC16427 | 1.27e5 | 1.51e5 | 2.09e6 | 3.65e6 | inactive |
| CG10803 | DRSC17763 | 57167 | 68150 | 4.91e5 | 5.64e5 | inactive |
| CG10803 | DRSC26282 | 3.53e5 | 3.62e5 | 5.56e5 | 5.19e5 | inactive |
| dimm | DRSC03100 | 1.73e5 | 2.07e5 | 1.57e6 | 1.38e6 | inactive |
| Ctr1A | DRSC18336 | 3.66e5 | 4.08e5 | 2.20e6 | 2.01e6 | inactive |
| CG1840 | DRSC19806 | 87209 | 69283 | 6.88e5 | 7.41e5 | inactive |
| CG1840 | DRSC25112 | 6.89e5 | 7.04e5 | 9.15e5 | 7.50e5 | inactive |
| CG6574 | DRSC16070 | 1.51e5 | 1.45e5 | 1.80e6 | 2.11e6 | inactive |
| CG5122 | DRSC02816 | 2.23e5 | 2.04e5 | 1.58e6 | 1.54e6 | inactive |
| Pph13 | DRSC23162 | 5.80e5 | 6.68e5 | 1.60e6 | 1.61e6 | inactive |
| Pph13 | DRSC29483 | 5.79e5 | 5.90e5 | 5.94e5 | 5.94e5 | inactive |
| CG11555 | DRSC00315 | 1.07e5 | 1.48e5 | 6.84e5 | 9.80e5 | inactive |
| CG11555 | DRSC24179 | 1.02e6 | 1.16e6 | 1.29e6 | 9.78e5 | inactive |
| CG10621 | DRSC02078 | 1.03e5 | 1.23e5 | 1.28e6 | 1.17e6 | inactive |
| mrva | DRSC11009 | 3.72e5 | 4.88e5 | 2.89e6 | 3.00e6 | inactive |
| mrva | DRSC21842 | 8.52e5 | 8.24e5 | 2.11e6 | 2.24e6 | inactive |
| mrva | DRSC25508 | 6.54e5 | 7.18e5 | 9.23e5 | 9.26e5 | inactive |
| Sas-6 | DRSC15061 | 1.74e5 | 1.96e5 | 2.10e6 | 2.26e6 | inactive |
| Srpk79D | DRSC11668 | 47520 | 90934 | 6.46e5 | 4.98e5 | inactive |
| Srpk79D | DRSC11856 | 46692 | 23406 | 1.78e5 | 1.79e5 | inactive |
| Srpk79D | DRSC29962 | 5.63e5 | 3.31e5 | 1.50e6 | 1.14e6 | inactive |
| Srpk79D | DRSC36763 | – | – | – | – | inactive |
| CG15408 | DRSC00423 | 1.31e5 | 1.38e5 | 8.35e5 | 9.82e5 | inactive |
| Rpt6R | DRSC15431 | 2.46e5 | 2.47e5 | 2.09e6 | 3.18e6 | inactive |
| EMC6 | DRSC14386 | 1.79e5 | 2.10e5 | 2.24e6 | 2.77e6 | inactive |
| SP | DRSC09664 | 2.88e5 | 1.58e5 | 2.50e6 | 2.34e6 | inactive |
| Ace | DRSC14100 | 79585 | 35979 | 5.71e5 | 4.55e5 | inactive |
| Ace | DRSC25364 | 1.23e6 | 1.11e6 | 8.01e5 | 6.64e5 | inactive |
| CG5535 | DRSC10514 | 84257 | 61575 | 5.12e5 | 5.88e5 | inactive |
| CG5535 | DRSC29215 | 7.44e5 | 5.08e5 | 1.86e6 | 1.87e6 | inactive |
| CG4955 | DRSC19927 | 1.21e5 | 1.47e5 | 4.53e5 | 6.94e5 | inactive |
| CG14082 | DRSC10086 | 3.55e5 | 3.42e5 | 2.23e6 | 2.81e6 | inactive |
| CG14082 | DRSC25472 | 8.74e5 | 8.13e5 | 8.12e5 | 8.21e5 | inactive |
| uex | DRSC20786 | 7.92e5 | 7.18e5 | 6.42e5 | 5.68e5 | inactive |
| uex | DRSC27422 | 6.87e5 | 4.61e5 | 7.17e5 | 8.41e5 | inactive |
